Assay results from paper PMC3854790, “CRIS—A Novel cAMP-Binding Protein Controlling Spermiogenesis and the Development of Flagellar Bending” (PLoS Genetics, 2013).

The chains behind the UniProt entries cited, without tags or fusion partners. Where a name states a change or a piece, a line headed by the entry shows the natural chain unless it says otherwise. A line that says so, or that is headed by a name, gives the form on record, which may keep a tag or linker.
UniProt P08414: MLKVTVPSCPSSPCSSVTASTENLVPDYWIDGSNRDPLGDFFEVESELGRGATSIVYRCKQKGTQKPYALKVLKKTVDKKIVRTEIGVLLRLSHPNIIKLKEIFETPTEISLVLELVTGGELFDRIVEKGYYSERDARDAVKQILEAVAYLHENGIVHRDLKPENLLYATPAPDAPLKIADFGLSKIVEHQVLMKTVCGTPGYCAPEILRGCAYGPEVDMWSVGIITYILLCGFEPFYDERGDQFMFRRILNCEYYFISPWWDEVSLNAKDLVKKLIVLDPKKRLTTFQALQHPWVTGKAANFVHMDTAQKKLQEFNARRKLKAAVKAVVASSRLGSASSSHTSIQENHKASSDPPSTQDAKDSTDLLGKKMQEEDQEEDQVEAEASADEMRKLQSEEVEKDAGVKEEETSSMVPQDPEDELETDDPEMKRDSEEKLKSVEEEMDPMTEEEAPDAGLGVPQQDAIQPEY
UniProt Q99PL5: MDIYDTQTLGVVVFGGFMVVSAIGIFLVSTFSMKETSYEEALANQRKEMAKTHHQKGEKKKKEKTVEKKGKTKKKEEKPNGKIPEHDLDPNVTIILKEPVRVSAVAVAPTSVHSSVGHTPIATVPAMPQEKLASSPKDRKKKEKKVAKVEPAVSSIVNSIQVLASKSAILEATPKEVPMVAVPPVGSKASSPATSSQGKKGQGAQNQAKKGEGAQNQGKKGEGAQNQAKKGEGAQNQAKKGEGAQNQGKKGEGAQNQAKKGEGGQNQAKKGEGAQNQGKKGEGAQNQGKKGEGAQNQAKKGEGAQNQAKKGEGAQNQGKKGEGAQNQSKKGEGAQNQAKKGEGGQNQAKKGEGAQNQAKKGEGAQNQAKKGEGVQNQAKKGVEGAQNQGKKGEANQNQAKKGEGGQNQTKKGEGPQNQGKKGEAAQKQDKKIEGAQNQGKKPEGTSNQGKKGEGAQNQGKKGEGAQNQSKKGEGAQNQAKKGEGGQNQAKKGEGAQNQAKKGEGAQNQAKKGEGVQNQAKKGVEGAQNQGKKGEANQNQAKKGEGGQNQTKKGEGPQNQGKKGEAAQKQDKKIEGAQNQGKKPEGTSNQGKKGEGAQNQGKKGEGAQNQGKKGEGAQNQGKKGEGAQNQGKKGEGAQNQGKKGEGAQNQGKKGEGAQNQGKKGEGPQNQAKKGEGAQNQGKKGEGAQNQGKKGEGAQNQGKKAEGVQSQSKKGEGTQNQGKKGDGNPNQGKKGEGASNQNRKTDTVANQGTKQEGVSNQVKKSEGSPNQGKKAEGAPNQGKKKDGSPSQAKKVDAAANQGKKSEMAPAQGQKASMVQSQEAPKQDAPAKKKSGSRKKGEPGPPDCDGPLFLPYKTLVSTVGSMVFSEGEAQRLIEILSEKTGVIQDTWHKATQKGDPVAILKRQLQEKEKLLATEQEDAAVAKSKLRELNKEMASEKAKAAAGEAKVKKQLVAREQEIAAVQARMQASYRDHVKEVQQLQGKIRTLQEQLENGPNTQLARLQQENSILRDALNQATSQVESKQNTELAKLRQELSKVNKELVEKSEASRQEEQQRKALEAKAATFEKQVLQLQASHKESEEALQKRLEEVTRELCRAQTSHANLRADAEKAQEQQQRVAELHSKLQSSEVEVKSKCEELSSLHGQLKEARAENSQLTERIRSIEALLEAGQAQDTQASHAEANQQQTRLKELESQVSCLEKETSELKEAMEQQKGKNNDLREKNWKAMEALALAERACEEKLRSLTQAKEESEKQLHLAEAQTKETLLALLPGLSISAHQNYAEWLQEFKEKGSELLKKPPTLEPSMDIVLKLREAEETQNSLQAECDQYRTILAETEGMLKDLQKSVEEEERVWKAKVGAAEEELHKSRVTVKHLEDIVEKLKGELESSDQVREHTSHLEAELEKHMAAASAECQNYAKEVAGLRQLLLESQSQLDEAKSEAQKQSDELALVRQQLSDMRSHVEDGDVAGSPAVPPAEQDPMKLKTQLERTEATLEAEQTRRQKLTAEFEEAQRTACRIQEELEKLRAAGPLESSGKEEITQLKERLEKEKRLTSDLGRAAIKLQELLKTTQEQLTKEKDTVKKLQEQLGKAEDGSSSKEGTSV
Dynactin subunit 4 (Q8CBY8-2, form named): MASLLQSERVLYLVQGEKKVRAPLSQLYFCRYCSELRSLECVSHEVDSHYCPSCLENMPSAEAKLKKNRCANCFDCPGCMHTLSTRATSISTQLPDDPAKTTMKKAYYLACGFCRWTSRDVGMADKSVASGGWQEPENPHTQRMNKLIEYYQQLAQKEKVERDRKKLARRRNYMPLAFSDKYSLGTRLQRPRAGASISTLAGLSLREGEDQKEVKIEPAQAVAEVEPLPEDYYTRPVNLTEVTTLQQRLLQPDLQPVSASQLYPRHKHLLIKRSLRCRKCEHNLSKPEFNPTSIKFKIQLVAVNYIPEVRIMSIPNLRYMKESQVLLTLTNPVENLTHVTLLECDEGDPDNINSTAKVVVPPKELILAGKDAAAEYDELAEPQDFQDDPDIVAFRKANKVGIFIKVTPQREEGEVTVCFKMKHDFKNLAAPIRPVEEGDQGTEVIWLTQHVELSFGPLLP
UniProt Q91Y86: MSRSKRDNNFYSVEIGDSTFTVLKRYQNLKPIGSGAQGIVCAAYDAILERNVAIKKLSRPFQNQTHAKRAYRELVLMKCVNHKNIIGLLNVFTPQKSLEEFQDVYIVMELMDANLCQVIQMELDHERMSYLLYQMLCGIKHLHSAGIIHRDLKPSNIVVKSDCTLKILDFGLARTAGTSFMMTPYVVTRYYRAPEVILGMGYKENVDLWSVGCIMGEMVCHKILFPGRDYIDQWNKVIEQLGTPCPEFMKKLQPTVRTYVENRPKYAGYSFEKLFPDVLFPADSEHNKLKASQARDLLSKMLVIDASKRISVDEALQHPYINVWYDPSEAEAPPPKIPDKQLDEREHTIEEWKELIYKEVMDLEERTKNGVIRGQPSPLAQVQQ
UniProt Q99J62: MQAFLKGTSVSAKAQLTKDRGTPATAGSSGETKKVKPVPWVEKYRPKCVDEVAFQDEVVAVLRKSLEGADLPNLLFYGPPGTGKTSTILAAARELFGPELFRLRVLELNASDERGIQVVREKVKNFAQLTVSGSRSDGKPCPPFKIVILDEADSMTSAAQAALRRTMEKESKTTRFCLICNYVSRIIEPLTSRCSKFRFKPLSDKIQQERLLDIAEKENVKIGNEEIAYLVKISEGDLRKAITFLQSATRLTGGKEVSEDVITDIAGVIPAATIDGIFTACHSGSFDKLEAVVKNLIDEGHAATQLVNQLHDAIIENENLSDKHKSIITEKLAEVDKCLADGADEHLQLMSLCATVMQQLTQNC
UniProt Q9CQJ2: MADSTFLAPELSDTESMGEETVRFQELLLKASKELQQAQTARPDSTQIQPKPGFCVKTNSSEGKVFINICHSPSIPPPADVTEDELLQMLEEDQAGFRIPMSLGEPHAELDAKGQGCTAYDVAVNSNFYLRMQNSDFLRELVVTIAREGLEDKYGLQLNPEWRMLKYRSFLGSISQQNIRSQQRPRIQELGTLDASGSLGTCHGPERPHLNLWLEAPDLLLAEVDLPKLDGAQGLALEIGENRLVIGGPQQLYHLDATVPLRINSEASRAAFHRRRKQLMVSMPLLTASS
Kinesin-like protein KIF2A (P28740-1, form named): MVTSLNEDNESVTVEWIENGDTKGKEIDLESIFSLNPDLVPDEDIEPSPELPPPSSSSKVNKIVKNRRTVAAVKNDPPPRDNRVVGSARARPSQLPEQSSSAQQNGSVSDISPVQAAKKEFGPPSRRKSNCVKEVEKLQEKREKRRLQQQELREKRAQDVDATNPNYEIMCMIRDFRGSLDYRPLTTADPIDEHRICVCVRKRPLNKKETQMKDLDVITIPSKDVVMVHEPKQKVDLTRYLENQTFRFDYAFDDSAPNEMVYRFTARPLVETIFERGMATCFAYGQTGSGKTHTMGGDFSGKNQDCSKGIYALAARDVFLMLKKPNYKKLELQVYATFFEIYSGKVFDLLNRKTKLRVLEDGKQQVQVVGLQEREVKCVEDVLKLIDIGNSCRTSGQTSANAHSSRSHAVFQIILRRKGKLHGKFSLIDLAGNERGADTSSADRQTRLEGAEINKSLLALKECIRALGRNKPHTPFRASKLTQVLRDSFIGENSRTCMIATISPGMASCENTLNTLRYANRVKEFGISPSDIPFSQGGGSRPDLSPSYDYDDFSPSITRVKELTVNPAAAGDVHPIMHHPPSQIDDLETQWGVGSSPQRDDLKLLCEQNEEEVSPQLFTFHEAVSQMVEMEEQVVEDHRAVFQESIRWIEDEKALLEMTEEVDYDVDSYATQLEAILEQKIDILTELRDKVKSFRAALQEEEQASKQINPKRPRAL

T1: CRIS (cyclic nucleotide receptor involved in sperm function) (mouse (endogenous in sperm precursor cells)) (UniProt Q9D5U8)
T1 sequence: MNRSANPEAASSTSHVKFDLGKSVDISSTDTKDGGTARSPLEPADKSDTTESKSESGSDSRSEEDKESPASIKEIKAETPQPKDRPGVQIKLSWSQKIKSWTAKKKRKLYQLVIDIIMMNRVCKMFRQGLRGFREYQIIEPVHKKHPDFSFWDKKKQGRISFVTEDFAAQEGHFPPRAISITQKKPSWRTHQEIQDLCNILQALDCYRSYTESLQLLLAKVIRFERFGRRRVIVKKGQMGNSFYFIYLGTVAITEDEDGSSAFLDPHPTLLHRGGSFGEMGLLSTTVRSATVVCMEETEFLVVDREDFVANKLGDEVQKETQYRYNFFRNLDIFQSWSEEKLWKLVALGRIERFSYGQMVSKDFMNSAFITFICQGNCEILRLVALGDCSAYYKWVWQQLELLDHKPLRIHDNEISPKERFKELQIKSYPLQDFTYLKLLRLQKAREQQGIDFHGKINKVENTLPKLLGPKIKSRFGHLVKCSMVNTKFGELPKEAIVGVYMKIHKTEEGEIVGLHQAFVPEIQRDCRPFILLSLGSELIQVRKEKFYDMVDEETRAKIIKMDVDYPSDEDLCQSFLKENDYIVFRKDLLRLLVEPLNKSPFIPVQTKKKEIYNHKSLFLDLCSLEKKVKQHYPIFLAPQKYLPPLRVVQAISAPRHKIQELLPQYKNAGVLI


Molecular target: T1, CRIS (cyclic nucleotide receptor involved in sperm function) (mouse (endogenous in sperm precursor cells))
Test: affinity purification with mass spectrometry; co-immunoprecipitation of endogenous CRIS from sperm precursor cells of wild-type mice; 500 µg total lysate on a column of monoclonal antibody 4B2 or 4E4 covalently coupled to Protein G, overnight at 4°C, washed four times with lysis buffer (10 mM Tris/HCl pH 7.6, 140 mM NaCl, 1 mM EDTA, 1% Triton-X 100), eluted in SDS sample buffer, SDS-PAGE, LC-MS/MS; cells of Cris-deficient mice as negative control

Row | binding | Molecule
1 | binds | Calcium/calmodulin-dependent protein kinase type IV (from UniProt P08414)
2 | binds | Ribosome-binding protein 1 (from UniProt Q99PL5 1-1605)
3 | binds | Dynactin subunit 4 (from UniProt Q8CBY8-2 1-460)
4 | binds | Mitogen-activated protein kinase 8 (from UniProt Q91Y86 1-384)
5 | binds | Replication factor C subunit 4 (from UniProt Q99J62 1-364)
6 | binds | PIH1 domain-containing protein 1 (from UniProt Q9CQJ2 1-290)
7 | binds | Cytoplasmic FMR1-interacting protein 1 (from UniProt Q7TMB8-1 1-1253)
8 | binds | Serine/threonine-protein phosphatase 2B catalytic subunit alpha isoform (from UniProt P63328-1 1-521)
9 | binds | Intraflagellar transport protein 172 homolog (from UniProt Q6VH22-1 1-1749)
10 | binds | Kinesin-like protein KIF2A (from UniProt P28740-1 1-716)
11 | binds | Serine/threonine-protein kinase N1 (from UniProt P70268-1 1-946)
12 | binds | CCR4-NOT transcription complex subunit 10 (from UniProt Q8BH15-1 1-744)
13 | binds | Oxysterol-binding protein 1
14 | binds | Selenoprotein W (protein, UniProt P63300 1-88) MALAVRVVYCGAUGYKPKYLQLKEKLEHEFPGCLDICGEGTPQVTGFFEVTVAGKLVHSKKRGDGYVDTESKFRKLVTAIKAALAQCQ
15 | binds | Oxysterol-binding protein-related protein 11 (protein, UniProt Q8CI95 1-751) MQGGEPASVMKVSESEGKLEGLATAVTPNKNSGNSSCGGAISSSSSNSSRGGSAKGWQYSDHMESVNGYLMKYTNLVTGWQYRFFVLNNEAGLLEYFVNEQSRNQKPRGTLQLAGAVISPSDEDSHTFTVNAASGEQYKLRATDAKERQHWVSRLQICTQHHTEAIGKNNPPLKSRSFSLASSGNSPISQRRPSQNAMSFFNVGHSKLQSVNKRAHLHPDHLVEVREMMSHAEGQQRDLIRRIECLPASGLLSSLDQDLLMLKATSMATMNCLNDCFHILQLQHASHQKGALPSGTTIEWLEPKIPLSNHYKNGAEQPFATEPNKPMGAPEAQCVAESGVLAREPEDISADDEVEDTCDNKEDDLGAVEEQRSVILHLLSQLKLGMDLTRVVLPTFILEKRSLLEMYADFMSHPDLFIGITNGATPEDRMIRFVEYYLTSFHEGRKGAIAKKPYNPIIGETFHCSWRMPKSEVASGVSSSSSTPAITDHAPLPEEAPTQSVSDCYTVRFVAEQVSHHPPVSGFYAECAERKMCVNAHVWTKSKFLGMSIGVTMVGEGVLCLLEHGEEYTFSLPCAYARSILTVPWVELGGKVSVNCAKTGYSASITFHTKPFYGGKLHRVTAEVKYNLTNTVVCRVQGEWNSVLEFTYSNGETKFVDLAKLAVTKKRVRPLEKQDPFESRRLWKNVTDSLRESEIDKATEHKRSLEERQRTEERLRTETGTPWKTKYFIKEGDGWVYHKPLWKGIPSQPAE
16 | binds | E3 ubiquitin-protein ligase RNF123 (protein, UniProt Q5XPI3-1 1-1314) MASKGTGMSFSRKSYRLTSDAEKSRVTGIVQEKLLSDYLYRIFSPPDRGPAAATSRKPLNFHNLPEHVDQLLQVDSEDNESQGQVEGRLGPSTVVLDHTGGFEGLLLVDDDLLGVIGHSNFGTIRSTTCVYKGKWVYEVLISSQGLMQIGWCTINCRFNQEEGVGDTHNSYAYDGNRVRKWNVTTTNYGKAWAAGDIVSCLIDLDDGTLSFCLNGVSLGTAFENLSRGLGMAYFPAISLSFKESVAFNFGSRPLRYPVAGFRPLQDPPFADLVRAQRLLGCFQAVLSVELDPVEGRLVETESSEWQLQGQPTVLLTLAHIFHHFAPLLRKVYLVEAVLMSFLLGVVEKGTPEQAQSVVHQILDLLWLFMEDYEVQDCLKQLMMSLLRLYRFSPIVPDLGLQIHYLRLTMSILRHEKSRKFLLSNVLFDMLRSVVFFYIKSPLRVEEAGLKELIPTTWWPHRSSRESRDGKEAREETTEERQRRRAYERGCQRLKKRIEVVEELQVQILKLLLDNKDDNGGEASRYIFLTKFRKFLQENASGRGNTPVLCPPEYMVCFLHRLVSALRFYWDEYKASNPRASFSEEAYIPPQIFYNGKVDYFDLQRLGGLLSHLRKTLKDDLASKANIVIDPLELQAATMDDLDEDEEPAPSAAQRPMQALAIGGALPLPRPGWLSSPTLGRANRFLSTAAVSLMTPRRLLSTMEKVKVRSLNVEQRTREDIEGSHWNEGLLLGRPPEEPEQPLTENSLLEVLDGTVMMYNLSVHQQLGKMVGVSDDVNEYAMALRDTEDKLRRCPKRRKDILAELTKSQKVFSEKLDHLSRRLAWVHATVYSQEKMLDIYWLLRVCLRTIEHGDRTGSLFAFMPEFYLSVAINSYSALKNYFGPVHSMEELPGYEETLTRLAAILAKHFADPRIVGTDIRDSLMQALASYVCYPHSLRAVERIPEEQRIAMVRNLLAPYEQRPWAQTNWILVRLWRGCGFGYRYTRLPHLLKTKPEDANLPSLQKPCPSTLLQQHMADLLRQGSDVAPSFLNSVLNQLNWAFSEFIGMIQEIQQAAERLERNFVDSRQLKVCATCFDLSVSLLRVLEMTITLVPEIFLDWSRPTSEMLLRRLAQLLNQVLNRVTAERNLFDRVVTLRLPGLESVDHYPILVAVTGILVRLLVHGPTSETEQATSVLLADPCFQLRSICYLLGQPEPLAPGTTLPAPDRKRFSLQSYTDYISAEELAQVEQMLAHLTAASAQAAAASLPTNEEDLCPICYAHPISAVFQPCGHKSCKACINQHLMNNKDCFFCKATIVSVEDWDKAANTSAMSSAA
17 | binds | Retinal dehydrogenase 2 (protein, UniProt Q62148 1-518) MTSSEIAMPGEVKADPAALMASLQLLPSPTPNLEIKYTKIFINNEWQNSESGRVFPVCNPATGEQVCEVQEADKVDIDKAVQAARLAFSLGSVWRRMDASERGRLLDKLADLVERDRATLATMESLNGGKPFLQAFYIDLQGVIKTLRYYAGWADKIHGMTIPVDGDYFTFTRHEPIGVCGQIIPWNFPLLMFTWKIAPALCCGNTVVIKPAEQTPLSALYMGALIKEAGFPPGVVNILPGYGPTAGAAIASHIGIDKIAFTGSTEVGKLIQEAAGRSNLKRVTLELGGKSPNIIFADADLDYAVEQAHQGVFFNQGQCCTAGSRIFVEESIYEEFVKRSVERAKRRIVGSPFDPTTEQGPQIDKKQYNKVLELIQSGVAEGAKLECGGKGLGRKGFFIEPTVFSNVTDDMRIAKEEIFGPVQEILRFKTMDEVIERANNSDFGLVAAVFTNDINKALMVSSAMQAGTVWINCYNALNAQSPFGGFKMSGNGREMGEFGLREYSEVKTVTVKIPQKNS
18 | binds | Ras-related protein Rab-5C (protein, UniProt P35278 1-216) MAGRGGAARPNGPAAGNKICQFKLVLLGESAVGKSSLVLRFVKGQFHEYQESTIGAAFLTQTVCLDDTTVKFEIWDTAGQERYHSLAPMYYRGAQAAIVVYDITNTDTFARAKNWVKELQRQASPNIVIALAGNKADLASKRAVEFQEAQAYADDNSLLFMETSAKTAMNVNEIFMAIAKKLPKNEPQNAAGAPGRTRGVDLQESNPASRSQCCSN
19 | binds | Sister chromatid cohesion protein PDS5 homolog B (protein, UniProt Q4VA53-1 1-1446) MAHSKTRTNDGKITYPPGVKEISDKISKEEMVRRLKMVVKTFMDMDQDSEEEKELYLNLALHLASDFFLKHPDKDVRLLVACCLADIFRIYAPEAPYTSPDKLKDIFMFITRQLKGLEDTKSPQFNRYFYLLENIAWVKSYNICFELEDSNEIFTQLYRTLFSVINNGHNQKVHMHMVDLMSSIICEGDTVSQELLDTVLVNLVPAHKNLNKQAYDLAKALLKRTAQAIEPYITNFFNQVLMLGKTSISDLSEHVFDLILELYNIDSHLLLSVLPQLEFKLKSNDNEERLQVVKLLAKMFGAKDSELASQNKPLWQCYLGRFNDIHVPIRLECVKFASHCLMNHPDLAKDLTEYLKVRSHDPEEAIRHDVIVSIVTAAKKDILLVNDHLLNFVRERTLDKRWRVRKEAMMGLAQIYKKYSLQSAAGKDAAKQISWVKDKLLHIYYQNSIDDRLLVERIFAQYMVPHNLETTERMKCLYYLYATLDLNAVKALNEMWKCQNLLRHQVKDLLDLIKQPKTDASVKAIFSKVMVITRNLPDPGKAQDFMKKFTQVLEDDEKIRKQLEALVSPTCSCKQAEGCVREITKKLGNPKQPTNPFLEMIKFLLERIAPVHIDTESISALIKQVNKSIDGTADDEDEGVPTDQAIRAGLELLKVLSFTHPISFHSAETFESLLACLKMDDEKVAEAALQIFKNTGSKIEEDFPHIRSALLPVLHHKSKKGPPRQAKYAIHCIHAIFSSKETQFAQIFEPLHKSLDPSNLEHLITPLVTIGHIALLAPDQFAAPLKSLVATFIVKDLLMNDRLPGKKTTKLWVPDEEVSPETMVKIQAIKMMVRWLLGMKNNHSKSGTSTLRLLTTILHSDGDLTEQGKISKPDMSRLRLAAGSAIVKLAQEPCYHEIITLEQYQLCALAINDECYQVRQVFAQKLHKGLSRLRLPLEYMAICALCAKDPVKERRAHARQCLVKNITVRREYLKQHAAVSEKLLSLLPEYVVPYTIHLLAHDPDYVKVQDIEQLKDVKECLWFVLEILMAKNENNSHAFIRKMVENIKQTKDAQGPDDTKMNEKLYTVCDVAMNIIMSKSTTYSLESPKDPVLPARFFTQPDKNFSNTKNYLPPEMKSFFTPGKPKTANVLGAVNKPLSSAGKQSQTKSSRMETVSNASSSSNPSSPGRIKGRLDSSEMDHSENEDYTMSSPLPGKKSDKREDPDLSELEKPRSRKKAPVTDPEEKLGMDDLTKLVQEQKPKGSQRGRKRGRTASDSDEQQWPEEKRHKEELLENEDEQNSPPKKGKRGRPPKPLGGGTSKEEPTMKTSKKGNKKKLVPPVVDDDEEEERQIGNTEHKSKSKQHRTSKRAQQRAESPETSAVESTQSTPQKGRGRPSKAPSPSQPPKKIRVGRSKQVATKENDSSEEMDVLQASSPVSDDTTQEGAEEEDISVGNVRRRSSKRERR

Results are given in words; binding and its absence hold for the method and conditions named. Binding seen in cells or lysates may run through a third protein. These calls come from enrichment with a bait or labelling near it, and not all partners need be listed.
